Whole data set: some 33,000 sequences, median “E-score (-0.5 to 0.5)” near -0.0059, cut for the highest 2% near 0.26. The list shows a part of the results.
target: T1, Cin5 (UniProt P40917); experiment: PBM E-score (8-mer binding enrichment) (E-score (-0.5 to 0.5)); higher = stronger / more preferred TF binding; conditions: protein concentration: 100 nM; construct: GST-full length
T1 sequence: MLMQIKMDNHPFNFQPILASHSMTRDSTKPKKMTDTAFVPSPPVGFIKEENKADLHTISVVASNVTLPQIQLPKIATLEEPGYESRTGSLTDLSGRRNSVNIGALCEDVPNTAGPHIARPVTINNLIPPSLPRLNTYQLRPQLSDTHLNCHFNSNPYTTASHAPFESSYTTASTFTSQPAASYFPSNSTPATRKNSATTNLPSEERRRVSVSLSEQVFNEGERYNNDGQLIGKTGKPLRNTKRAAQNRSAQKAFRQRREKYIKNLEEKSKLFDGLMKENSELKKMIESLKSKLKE
Outline: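 Using PURExpress in vitro transcription/translation, GST-tagged yeast transcription factors were made in full-length or DNA-binding-domain form. These were applied at about 100-200 nM to double-stranded universal all-10-mer Agilent arrays, and bound protein was detected with fluorescent anti-GST. Scans were normalised with masliner before the Universal PBM Analysis Suite assigned E-scores to ungapped eight-base words pooled with their reverse complements.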

| Sequence | PBM E-score |
| --- | --- |
| CCATACAG | -0.0464 |
| ACCCCTGG | -0.189 |
| ACTATAGA | 0.156 |
| GTCACGCA | 0.0339 |
| ACTCACTC | -0.0322 |
| CAGCAAGC | -0.221 |
| CACCACTC | -0.0334 |
| ACCACCGG | -0.0652 |
| GCCATAAA | -0.0591 |
| AATCCAAT | 0.195 |
| GGTAAACC | -0.173 |
| ATAACTCG | 0.121 |
| GTTATAAC | -0.103 |
| CCCAAGAA | 0.062 |
| ACCTTACT | 0.0647 |
| TAAGGCGA | -0.0125 |
| GATGGATA | 0.16 |
| AATGCGAA | -0.0575 |
| GTACGTAA | 0.397 |
| AACAGAGT | 0.0745 |
| AACCTGTC | -0.0905 |
| CTGATGAA | 0.0259 |
| TGTAATAA | 0.194 |
| ATTCGACC | -0.214 |
| CGCGTTCC | -0.0726 |

| Sequence | PBM E-score |
| --- | --- |
| GAGTGAGA | -0.0316 |
| AGTTGGGA | -0.126 |
| ATAGCCAT | 0.137 |
| ACGACACA | 0.0457 |
| CTACCAGA | 0.00453 |
| ATAGCTCG | -0.0782 |
| CGCAGCCA | -0.2 |
| TCACAAGA | 0.0107 |
| ATGCGTAC | 0.0118 |
| GTTTGCGA | 0.0898 |
| CGCCGAAC | 0.0689 |
| ATAACCGA | -0.00875 |
| CAAGGTGA | -0.0314 |
| ATATGTCA | 0.19 |
| GCAGTGCC | -0.286 |
| GGTCACGA | 0.0234 |
| CGGCAGAA | -0.0233 |
| TGGAACCA | 0.104 |
| CAAGTAAG | -0.0336 |
| AAACGATT | 0.187 |
| CAGCGAGG | -0.174 |
| GCATCTGA | -0.131 |
| CCATTTGC | -0.0122 |
| ACGAACCA | 0.231 |
| AGATTCCT | -0.119 |

Taken from the results shown (seven entries):

| Sequence | PBM E-score |
| --- | --- |
| CGCCGAAC | 0.0689 |
| ATAACCGA | -0.00875 |
| CAAGGTGA | -0.0314 |
| ATATGTCA | 0.19 |
| GCAGTGCC | -0.286 |
| GGTCACGA | 0.0234 |
| CGGCAGAA | -0.0233 |

Additional records follow:

| Sequence | PBM E-score |
| --- | --- |
| GCCTATAC | -0.169 |
| GAGTAGAC | -0.00052 |
| CCAAACAG | -0.00826 |
| CAAAGCTC | -0.304 |
| GCCAGGAA | -0.152 |
| AGTGACAT | 0.164 |
| GAGCGCTA | -0.013 |
| GACCGTCC | -0.276 |
| AACACGTA | 0.088 |
| AACGTAGG | -0.0785 |
| GTTATCCA | 0.135 |
| CCATAGAC | -0.0765 |
| AATTCATA | 0.167 |
| CCAGTTAA | 0.134 |
| ACTCTGCC | -0.0409 |
| CTGTTTAC | 0.0607 |
| CTCCTAAC | -0.0304 |
| ACCGAGAA | 0.083 |
| ACGCACTG | -0.137 |
| AAAAGACA | 0.193 |
| GAGTGGGA | -0.147 |
| CCACGCGG | -0.212 |
| CCCATTAA | -0.0763 |
| AATCATCA | 0.229 |
| CATGGAAA | 0.212 |

| Sequence | PBM E-score |
| --- | --- |
| ACAGCAGG | -0.022 |
| ATGACGGA | 0.16 |
| GCTATTTA | 0.0457 |
| GAAGCATA | -0.101 |
| CGTGTATA | 0.222 |
| ATAGCGCA | 0.0568 |
| AGTGAATG | 0.248 |
| AAGCGAAG | -0.0254 |
| ATGTCTTG | 0.0456 |
| ACAATCAT | 0.159 |
| GCGCAAGA | 0.0403 |
| TACGATCA | 0.184 |
| CCCTGAAC | 0.064 |
| GACTCTTA | 0.156 |
| CTCTGAGA | -0.0821 |
| GGCGGAAC | 0.0816 |
| AGGCGTCC | -0.121 |
| CCATGGCC | -0.128 |
| CATCCAGC | -0.0337 |
| AACAAAAG | -0.0456 |
| GAGCTAGA | -0.17 |
| CCTATTGA | -0.0739 |
| AGACCTAT | -0.028 |
| AAGCCCAT | 0.0327 |
| AACATCAT | 0.159 |

| Sequence | PBM E-score |
| --- | --- |
| AAGGCCAA | -0.263 |
| GCTCACCC | -0.199 |
| CTGCCTTC | -0.0771 |
| CGCGAAAG | 0.0342 |
| CGGGTCAG | 0.00547 |
| GATGAGAC | 0.0922 |
| CTTACTAA | 0.313 |
| GACGGAGA | -0.0903 |
| ACTAACCC | 0.0917 |
| TCGTGTAA | 0.0987 |
| AGTCATCG | -0.024 |
| CTGAGAAG | -0.0987 |
| ATTGCCCA | 0.0539 |
| TGACGCCA | -0.133 |
| GAGCCGAC | -0.245 |
| CGCCTATA | 0.0177 |
| CATATGGA | 0.0562 |
| GCCTTAGA | -0.135 |
| CCTACACC | -0.072 |
| AAATTAAT | 0.107 |
| TGTACAAA | 0.174 |
| AGCTCTGC | -0.271 |
| AATGTAGA | 0.0731 |
| AGCTTGCG | -0.231 |
| CTGTATAA | 0.161 |

| Sequence | PBM E-score |
| --- | --- |
| AGAGTTAG | 0.0104 |
| ATTCATAG | 0.187 |
| GCTTGTAC | 0.052 |
| CCGGAGCA | -0.164 |
| ACCGAACA | -0.00929 |
| CAATTGGC | 0.165 |
| GCGCCAGA | -0.18 |
| TCCATTAA | 0.0123 |
| AAAGTGCG | 0.0544 |
| TTAGCAAA | 0.16 |
| GTATCCAC | -0.00124 |
| GACATAGA | -0.0559 |
| CGTATGCC | -0.12 |
| CTCAAAAG | -0.0668 |
| TACCGCCA | 0.121 |
| AAGCCAGA | -0.069 |
| AACCTAAT | -0.00149 |
| ATTCCGCG | 0.261 |
| ACTACCGA | -0.234 |
| CTGCCTGA | 0.0937 |
| AATATGAA | 0.258 |
| CAGCTCGG | -0.114 |
| ACACGAAT | 0.135 |
| GTATCGGA | 0.0545 |
| GGACGCAC | -0.0295 |

| Sequence | PBM E-score |
| --- | --- |
| GTAGAATA | 0.194 |
| TCCACGCA | -0.029 |
| ACGTGACG | 0.0158 |
| CTAGCAAC | 0.0586 |
| CACGGAAA | 0.224 |
| ATCACAAT | 0.206 |
| GAGTCCGC | -0.294 |
| TAGATGGA | 0.00818 |
| CCACAGCC | -0.186 |
| CCCAGTCC | -0.128 |
| CCCACTGA | 0.0409 |
| CACAAAGG | 0.0674 |
| AGCAGACA | -0.0863 |
| ACGGACAT | 0.0391 |
| AATTCAAA | 0.133 |
| ACCAAGGG | -0.177 |
| GGGTGTAA | 0.0982 |
| GGTCGCGA | 0.0913 |
| AGGGTGCC | -0.217 |
| ATAGTCAA | -0.0149 |
| GTGACATA | 0.303 |
| CTCCAGAG | -0.181 |

From the supplement of paper PMC3334620
